{"source": "the supplement of paper PMC8728848", "assay_in_all_cases": "glycan array binding signal (z-score within array); higher = stronger binding", "conditions_in_all_cases": "glycan notation: IUPAC condensed, linker removed", "key": {"[1]": {"target": "Gal(b1-4)GlcNAc(b1-3)Gal(b1-4)GlcNAc(b1-3)Gal(b1-4)GlcNAc(b1-2)Man(a1-3)[Gal(b1-4)GlcNAc(b1-3)Gal(b1-4)GlcNAc(b1-3)Gal(b1-4)GlcNAc(b1-2)Man(a1-6)]Man(b1-4)GlcNAc(b1-4)GlcNAc", "outline": "(§1)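 Columns mapping to the same glycan were averaged after glycan names were converted to IUPAC-condensed notation. The data come from 3228 arrays in the Consortium for Functional Glycomics database, limited to those with an available protein sequence. Binding is reported as a within-array Z-score averaged across arrays of one protein sequence and across linkers.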"}, "[2]": {"target": "Gal(b1-4)GlcNAc(b1-3)Gal(b1-4)GlcNAc(b1-3)Gal(b1-4)GlcNAc(b1-2)Man(a1-3)[Gal(b1-4)GlcNAc(b1-3)Gal(b1-4)GlcNAc(b1-3)Gal(b1-4)GlcNAc(b1-2)Man(a1-6)]Man(b1-4)GlcNAc(b1-4)[Fuc(a1-6)]GlcNAc", "outline": "as §1"}, "[3]": {"target": "Gal(b1-4)GlcNAc(b1-3)Gal(b1-4)GlcNAc(b1-3)Gal(b1-4)GlcNAc(b1-2)[Gal(b1-4)GlcNAc(b1-3)Gal(b1-4)GlcNAc(b1-3)Gal(b1-4)GlcNAc(b1-6)]Man(a1-6)[Gal(b1-4)GlcNAc(b1-3)Gal(b1-4)GlcNAc(b1-3)Gal(b1-4)GlcNAc(b1-2)Man(a1-3)]Man(b1-4)GlcNAc(b1-4)[Fuc(a1-6)]GlcNAc", "outline": "as §1"}, "[4]": {"target": "Gal(b1-4)GlcNAc(b1-3)Gal(b1-4)GlcNAc(b1-3)Gal(b1-4)GlcNAc(b1-3)Gal(b1-4)GlcNAc(b1-2)Man(a1-3)[Gal(b1-4)GlcNAc(b1-3)Gal(b1-4)GlcNAc(b1-3)Gal(b1-4)GlcNAc(b1-3)Gal(b1-4)GlcNAc(b1-2)Man(a1-6)]Man(b1-4)GlcNAc(b1-4)GlcNAc", "outline": "as §1"}, "[5]": {"target": "Gal(b1-4)GlcNAc(b1-3)Gal(b1-4)GlcNAc(b1-3)Gal(b1-4)GlcNAc(b1-3)Gal(b1-4)GlcNAc(b1-2)Man(a1-3)[Gal(b1-4)GlcNAc(b1-3)Gal(b1-4)GlcNAc(b1-3)Gal(b1-4)GlcNAc(b1-3)Gal(b1-4)GlcNAc(b1-2)Man(a1-6)]Man(b1-4)GlcNAc(b1-4)[Fuc(a1-6)]GlcNAc", "outline": "as §1"}, "[6]": {"target": "Gal(b1-4)GlcNAc(b1-3)Gal(b1-4)GlcNAc(b1-3)Gal(b1-4)GlcNAc(b1-3)Gal(b1-4)GlcNAc(b1-2)[Gal(b1-4)GlcNAc(b1-3)Gal(b1-4)GlcNAc(b1-3)Gal(b1-4)GlcNAc(b1-3)Gal(b1-4)GlcNAc(b1-6)]Man(a1-6)[Gal(b1-4)GlcNAc(b1-3)Gal(b1-4)GlcNAc(b1-3)Gal(b1-4)GlcNAc(b1-3)Gal(b1-4)GlcNAc(b1-2)Man(a1-3)]Man(b1-4)GlcNAc(b1-4)[Fuc(a1-6)]GlcNAc", "outline": "as §1"}, "[7]": {"target": "Gal(b1-4)GlcNAc(b1-3)Gal(b1-4)GlcNAc(b1-3)Gal(b1-4)GlcNAc(b1-3)Gal(b1-4)GlcNAc(b1-3)Gal(b1-4)GlcNAc(b1-2)Man(a1-3)[Gal(b1-4)GlcNAc(b1-3)Gal(b1-4)GlcNAc(b1-3)Gal(b1-4)GlcNAc(b1-3)Gal(b1-4)GlcNAc(b1-3)Gal(b1-4)GlcNAc(b1-2)Man(a1-6)]Man(b1-4)GlcNAc(b1-4)GlcNAc", "outline": "as §1"}, "[8]": {"target": "Gal(b1-4)GlcNAc(b1-3)Gal(b1-4)GlcNAc(b1-3)Gal(b1-4)GlcNAc(b1-3)Gal(b1-4)GlcNAc(b1-3)Gal(b1-4)GlcNAc(b1-2)Man(a1-3)[Gal(b1-4)GlcNAc(b1-3)Gal(b1-4)GlcNAc(b1-3)Gal(b1-4)GlcNAc(b1-3)Gal(b1-4)GlcNAc(b1-3)Gal(b1-4)GlcNAc(b1-2)Man(a1-6)]Man(b1-4)GlcNAc(b1-4)[Fuc(a1-6)]GlcNAc", "outline": "as §1"}, "[9]": {"target": "Gal(b1-4)GlcNAc(b1-3)Gal(b1-4)GlcNAc(b1-3)Gal(b1-4)GlcNAc(b1-3)Gal(b1-4)GlcNAc(b1-3)Gal(b1-4)GlcNAc(b1-2)[Gal(b1-4)GlcNAc(b1-3)Gal(b1-4)GlcNAc(b1-3)Gal(b1-4)GlcNAc(b1-3)Gal(b1-4)GlcNAc(b1-3)Gal(b1-4)GlcNAc(b1-6)]Man(a1-6)[Gal(b1-4)GlcNAc(b1-3)Gal(b1-4)GlcNAc(b1-3)Gal(b1-4)GlcNAc(b1-3)Gal(b1-4)GlcNAc(b1-3)Gal(b1-4)GlcNAc(b1-2)Man(a1-3)]Man(b1-4)GlcNAc(b1-4)[Fuc(a1-6)]GlcNAc", "outline": "as §1"}, "[10]": {"target": "Gal(b1-4)GlcNAc(b1-3)Gal(b1-4)GlcNAc(b1-3)Gal(b1-4)GlcNAc(b1-3)Gal(b1-4)GlcNAc(b1-3)Gal(b1-4)GlcNAc(b1-3)Gal(b1-4)GlcNAc(b1-2)Man(a1-3)[Gal(b1-4)GlcNAc(b1-3)Gal(b1-4)GlcNAc(b1-3)Gal(b1-4)GlcNAc(b1-3)Gal(b1-4)GlcNAc(b1-3)Gal(b1-4)GlcNAc(b1-3)Gal(b1-4)GlcNAc(b1-2)Man(a1-6)]Man(b1-4)GlcNAc(b1-4)GlcNAc", "outline": "as §1"}, "[11]": {"target": "Gal(b1-4)GlcNAc(b1-3)Gal(b1-4)GlcNAc(b1-3)GalNAc", "outline": "as §1"}, "[12]": {"target": "Gal(b1-4)GlcNAc(b1-3)Gal(b1-4)GlcNAc(b1-3)[Gal(b1-4)GlcNAc(b1-3)Gal(b1-4)GlcNAc(b1-6)]GalNAc", "outline": "as §1"}, "[13]": {"target": "Gal(b1-4)GlcNAc(b1-3)Gal(b1-4)GlcNAc(b1-6)[Gal(b1-3)]GalNAc", "outline": "as §1"}, "[14]": {"target": "Gal(b1-4)GlcNAc(b1-3)Gal(b1-4)[Fuc(a1-3)]GlcNAc(b1-3)Gal(b1-4)[Fuc(a1-3)]GlcNAc", "outline": "as §1"}, "[15]": {"target": "Gal(b1-4)GlcNAc(b1-3)GalNAc", "outline": "as §1"}, "[16]": {"target": "Gal(b1-4)GlcNAc(b1-3)[Fuc(a1-3)GlcNAc(b1-6)]Gal(b1-4)Glc", "outline": "as §1"}, "[17]": {"target": "Gal(b1-4)GlcNAc(b1-3)[Gal(b1-4)GlcNAc(b1-6)]Gal(b1-4)GlcNAc", "outline": "as §1"}, "[18]": {"target": "Gal(b1-4)GlcNAc(b1-3)[GlcNAc(b1-6)]Gal(b1-4)GlcNAc", "outline": "as §1"}, "[19]": {"target": "Gal(b1-4)GlcNAc(b1-6)Gal(b1-4)GlcNAc", "outline": "as §1"}}, "note": "The other results are listed elsewhere or left out."}
{"binder": "GS7807Q-bfa-507-19-507 (Bacteroides fragilis) (protein) ASCNKFDDLNTNPDAATKVTAPMLATKLILNITQQGSAKNFVYHSMLSKQIAWSENASDEQYNLFGRTDFDGYTILTNCQKMVDAANEGDKDSYAALAKFMKAYKLFYKSLEVGDIPYSDALKGEEGVQKPKYDTQKEVMRQVLEDLEEAYTLFSSGSDFDGDPIFGGDTENWKKTVVAFELKVLTHLCKKDTDADLKVKERFARLVSSGSLMTSNADNFQLVYSNKAGQLYPFYYTQNKHSDYLMMSSVIIDNLKKFNDYRMFYYASPAKAQTDKGIKDSEWDAYLSIDPSDSYSNISVLYGKGEFCLANLRYTRVPEGEPLMRLSYAEQNFILAEGAVRGWISEDASTYYKKGIEASMNFIADNTPDKEEYTHGRTITQEYIQEYLAQPVIQLSGDKEKDLEMILLQRYLASFLQHPYDAYYDYRRTGYPVLPINPSTNLNTEKNKIPTRWMYPEAEFSYNPDNANEAVQRQYNGSDDVNKLMWILQ", "values": [{"measurement": "glycan array binding signal (z-score)", "setting": "[1]", "result": 2.7}, {"measurement": "glycan array binding signal (z-score)", "setting": "[2]", "result": 1.56}, {"measurement": "glycan array binding signal (z-score)", "setting": "[3]", "result": 2.07}, {"measurement": "glycan array binding signal (z-score)", "setting": "[4]", "result": -0.356}, {"measurement": "glycan array binding signal (z-score)", "setting": "[5]", "result": 1.2}, {"measurement": "glycan array binding signal (z-score)", "setting": "[6]", "result": 1.33}, {"measurement": "glycan array binding signal (z-score)", "setting": "[7]", "result": -0.15}, {"measurement": "glycan array binding signal (z-score)", "setting": "[8]", "result": 2.35}, {"measurement": "glycan array binding signal (z-score)", "setting": "[9]", "result": 0.164}, {"measurement": "glycan array binding signal (z-score)", "setting": "[10]", "result": -0.371}, {"measurement": "glycan array binding signal (z-score)", "setting": "[11]", "result": -0.268}, {"measurement": "glycan array binding signal (z-score)", "setting": "[12]", "result": -0.074}, {"measurement": "glycan array binding signal (z-score)", "setting": "[13]", "result": 0.121}, {"measurement": "glycan array binding signal (z-score)", "setting": "[14]", "result": -0.174}, {"measurement": "glycan array binding signal (z-score)", "setting": "[15]", "result": -1.35}, {"measurement": "glycan array binding signal (z-score)", "setting": "[16]", "result": -0.659}, {"measurement": "glycan array binding signal (z-score)", "setting": "[17]", "result": -0.507}, {"measurement": "glycan array binding signal (z-score)", "setting": "[18]", "result": -0.795}, {"measurement": "glycan array binding signal (z-score)", "setting": "[19]", "result": -0.977}]}
